Results taken from doi:10.1101/2021.09.16.460643 (bioRxiv, 2021).
No constants are given. Whether binding was seen depends on the method and setting. In cells and extracts the contact can be indirect. Some binding calls cover weakened binding; strength is not graded here. Tags and fused reporters may be left off the sequences shown.

Molecular target: T1, full length ETR1-mCherry (Arabidopsis thaliana) (UniProt P49333)
T1 sequence: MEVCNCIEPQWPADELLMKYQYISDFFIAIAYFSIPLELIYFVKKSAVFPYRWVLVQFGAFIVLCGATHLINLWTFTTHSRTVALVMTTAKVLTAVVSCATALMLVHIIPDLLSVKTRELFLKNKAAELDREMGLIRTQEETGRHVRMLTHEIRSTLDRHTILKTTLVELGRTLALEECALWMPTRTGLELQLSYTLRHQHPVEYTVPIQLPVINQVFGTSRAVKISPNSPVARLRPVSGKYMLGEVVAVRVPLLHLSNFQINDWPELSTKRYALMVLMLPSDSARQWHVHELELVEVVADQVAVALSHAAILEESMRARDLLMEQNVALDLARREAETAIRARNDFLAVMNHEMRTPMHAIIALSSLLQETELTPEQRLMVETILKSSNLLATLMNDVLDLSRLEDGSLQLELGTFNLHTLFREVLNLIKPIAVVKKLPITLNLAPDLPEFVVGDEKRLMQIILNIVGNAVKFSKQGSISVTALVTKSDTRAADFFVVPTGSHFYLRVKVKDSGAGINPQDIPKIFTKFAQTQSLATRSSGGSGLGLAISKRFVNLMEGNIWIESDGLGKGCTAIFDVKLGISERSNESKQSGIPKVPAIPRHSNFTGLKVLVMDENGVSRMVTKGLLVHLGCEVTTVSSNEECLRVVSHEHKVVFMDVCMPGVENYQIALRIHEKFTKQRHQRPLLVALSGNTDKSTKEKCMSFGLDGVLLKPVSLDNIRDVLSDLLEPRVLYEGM
Assay: FRET or BRET

- binding: binds
B1: full length AHK5-GFP (protein, UniProt Q3S4A7 1-922)
chain: MVCEMETDQIEEMDVEVLSSMWPEDVGTEADKQFNVEKPAGDLDTLKEVTIETRTIADMTRLPNLLNSTHQGSSQLTNLVKQWEYMQDNAVRLLKEELKNLDRQREEAEAKELKIIEEYKFESNEPENVPVLDETSDLFRRFRQKKRDALVDSKKIEIYEEFDTVAYWKQKALSLEKMLEASTERERRLMEKLSESLKTMESQSAPVQELTQNLKRAEGFLHFILQNAPIVMGHQDKDLRYLFIYNKYPSLREQDILGKTDVEIFHGGGVKESEDFKREVLEKGKASKREITFTTDLFGSKTFLIYVEPVYNKAGEKIGINYMGMEVTDQVVKREKMAKLREDNAVRKAMESELNKTIHITEETMRAKQMLATMSHEIRSPLSGVVGMAEILSTTKLDKEQRQLLNVMISSGDLVLQLINDILDLSKVESGVMRLEATKFRPREVVKHVLQTAAASLKKSLTLEGNIADDVPIEVVGDVLRIRQILTNLISNAIKFTHEGNVGIKLQVISEPSFVRDNALNADTEEHEQNGLTETSVWICCDVWDTGIGIPENALPCLFKKYMQASADHARKYGGTGLGLAICKQLVELMGGQLTVTSRVSEGSTFTFILPYKVGRSDDYSDDQDEFSDMADQQSEPDDTAEGYFQFKPLLGSIYSNGGPGISNDFLPHKVMLTSPIKLINGFVADPSNNTGQSEMLQLENGGYMDESKLETSSGHCPESAHQYENGNGRCFSKESESCSSSQASSEGGTLEMESELTVSSHREEEKAETEVKETSKPKILLVEDNKINIMVAKSMMKQLGHTMDIANNGVEAITAINSSSYDLVLMDVCMPVLDGLKATRLIRSYEETGNWNAAIEAGVDISTSENEQVCMRPTNRLPIIAMTANTLAESSEECYANGMDSFISKPVTLQKLRECLQQYLH
